Results deposited as PubChem BioAssay AID504793 (Drosophila RNAi Screening Center, 2011).
The screen tested about 23,000 reagents; this is an unselected part of those with a known target gene and a result. Over the whole deposit, 62 (0.27%) got an active call. 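Calls come from follow-up tests whose scores are not deposited, so confirmed genes may have low counts here; counts are not normalised per plate.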 Raw values vary from plate to plate and are shown uncorrected. Reagents against one gene are numbered here. A plus sign joins genes that one reagent is predicted to hit. No sequences are given here.

- Test: 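Whole-genome screen for parts of the DNA damage checkpoint at G2/M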 (primary screen)
- System: Drosophila S2R+ cells
- Knock-down reagent: long dsRNA against Drosophila genes, about 0.25 µg dsRNA per well
- Duration: 4 days of dsRNA, then 4 hours of drug before read-out
- Challenge: doxorubicin 0.5 µM for 4 hours to cause double-strand breaks, in cells also given a low, harmless dose of dsRNA against nbs to sensitise the assay
- Read-out: 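Per-well count of mitotic cells stained for phospho-histone H3 after doxorubicin exposure, used as mitotic index; counts are raw and not normalised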
- Direction: mitotic cells: higher = more cells in mitosis, weaker G2 arrest
- Active means: 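Genes are called active only when high mitotic counts were reproduced with independent dsRNAs and mitosis was checked for delay without damage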
- Calls: active = confirmed in follow-up tests; inactive = not confirmed

mitotic cells, replicate 1, by predicted target and reagent
Usf (GeneID 31384): #1 18 inactive; #2 1 inactive
Nil (GeneID 43185): #1 7 inactive; #2 4 inactive
Edc3 (GeneID 39957): #1 4 inactive; #2 10 inactive
Tsp66A + CG42661 + CG42660: #1 8 inactive
Elp5 (GeneID 38287): #1 4 inactive
Polr1F (GeneID 33963): #1 11 inactive; #2 3 inactive
CG10621 (GeneID 35152): #1 1 inactive
BomS6 (GeneID 50206): #1 6 inactive; #2 5 inactive
Arl5 (GeneID 38931): #1 5 inactive; #2 2 inactive
CG12902 (GeneID 36092): #1 5 inactive
trsn (GeneID 36110): #1 6 inactive
CG12341 (GeneID 36137): #1 11 inactive
bab1 (GeneID 38116): #1 11 inactive; #2 14 inactive; #3 6 inactive
Wnt5 (GeneID 32838): #1 17 inactive; #2 4 inactive
Vps33B (GeneID 43077): #1 8 inactive
neur (GeneID 41085): #1 10 inactive; #2 4 inactive
CG4455 (GeneID 34975): #1 16 inactive; #2 9 inactive
Fem-1 (GeneID 37344): #1 3 inactive; #2 4 inactive
Ccdc58 + CG34116: #1 5 inactive
CG7084 (GeneID 42606): #1 3 inactive
PPO2 (GeneID 35910): #1 5 inactive
Magi (GeneID 37403): #1 8 inactive; #2 10 inactive; #3 11 inactive
CG5704 (GeneID 48613): #1 5 inactive
CG32040 (GeneID 317835): #1 13 inactive
CG4586 (GeneID 31641): #1 12 inactive
CG6712 (GeneID 34631): #1 6 inactive; #2 18 inactive
CG7365 (GeneID 40200): #1 11 inactive; #2 2 inactive
CG12768 (GeneID 40513): #1 6 inactive; #2 11 inactive

Targets above whose gene name starts with P or p (3):
mitotic cells, replicate 1, by predicted target and reagent
Polr1F (GeneID 33963): #1 11 inactive; #2 3 inactive
PPO2 (GeneID 35910): #1 5 inactive
